# Results are given in words; binding and its absence hold for the method and conditions named. Binding seen in cells or lysates may run through a third protein. Here binding means that the protein was enriched with, or labelled near, the bait; the list need not be complete.
# The chains behind the UniProt entries cited, without tags or fusion partners. Residues count along the entry.
# UniProt P29317, residues 24-976: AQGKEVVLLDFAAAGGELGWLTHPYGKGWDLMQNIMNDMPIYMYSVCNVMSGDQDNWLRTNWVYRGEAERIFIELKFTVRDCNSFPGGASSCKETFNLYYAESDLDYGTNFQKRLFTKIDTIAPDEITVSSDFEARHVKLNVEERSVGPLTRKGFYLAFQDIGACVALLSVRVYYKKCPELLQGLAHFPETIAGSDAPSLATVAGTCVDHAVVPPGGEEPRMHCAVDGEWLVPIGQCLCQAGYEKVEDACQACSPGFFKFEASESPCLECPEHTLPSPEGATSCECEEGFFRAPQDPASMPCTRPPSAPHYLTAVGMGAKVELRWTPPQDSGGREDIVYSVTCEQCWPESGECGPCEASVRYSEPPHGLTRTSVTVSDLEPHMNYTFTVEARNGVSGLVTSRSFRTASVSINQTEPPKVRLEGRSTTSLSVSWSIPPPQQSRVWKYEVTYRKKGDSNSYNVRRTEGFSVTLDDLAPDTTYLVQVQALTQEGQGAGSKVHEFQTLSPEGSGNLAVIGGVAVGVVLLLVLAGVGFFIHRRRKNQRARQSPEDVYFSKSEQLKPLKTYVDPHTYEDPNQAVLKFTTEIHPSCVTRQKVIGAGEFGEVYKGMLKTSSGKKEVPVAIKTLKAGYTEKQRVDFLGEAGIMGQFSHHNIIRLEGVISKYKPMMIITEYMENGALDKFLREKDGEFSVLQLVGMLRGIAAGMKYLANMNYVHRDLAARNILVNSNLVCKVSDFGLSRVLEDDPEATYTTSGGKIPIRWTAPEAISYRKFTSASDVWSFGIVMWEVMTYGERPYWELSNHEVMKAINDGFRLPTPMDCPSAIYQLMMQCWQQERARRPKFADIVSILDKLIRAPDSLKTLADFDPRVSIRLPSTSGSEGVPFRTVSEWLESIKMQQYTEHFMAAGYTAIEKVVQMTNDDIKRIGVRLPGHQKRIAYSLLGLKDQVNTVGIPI
# Target: T1, transforming growth factor beta-induced protein (TGFBI), endogenous in GSCs (human (endogenous in T3691 GSCs)) (UniProt Q15582)
# T1 sequence: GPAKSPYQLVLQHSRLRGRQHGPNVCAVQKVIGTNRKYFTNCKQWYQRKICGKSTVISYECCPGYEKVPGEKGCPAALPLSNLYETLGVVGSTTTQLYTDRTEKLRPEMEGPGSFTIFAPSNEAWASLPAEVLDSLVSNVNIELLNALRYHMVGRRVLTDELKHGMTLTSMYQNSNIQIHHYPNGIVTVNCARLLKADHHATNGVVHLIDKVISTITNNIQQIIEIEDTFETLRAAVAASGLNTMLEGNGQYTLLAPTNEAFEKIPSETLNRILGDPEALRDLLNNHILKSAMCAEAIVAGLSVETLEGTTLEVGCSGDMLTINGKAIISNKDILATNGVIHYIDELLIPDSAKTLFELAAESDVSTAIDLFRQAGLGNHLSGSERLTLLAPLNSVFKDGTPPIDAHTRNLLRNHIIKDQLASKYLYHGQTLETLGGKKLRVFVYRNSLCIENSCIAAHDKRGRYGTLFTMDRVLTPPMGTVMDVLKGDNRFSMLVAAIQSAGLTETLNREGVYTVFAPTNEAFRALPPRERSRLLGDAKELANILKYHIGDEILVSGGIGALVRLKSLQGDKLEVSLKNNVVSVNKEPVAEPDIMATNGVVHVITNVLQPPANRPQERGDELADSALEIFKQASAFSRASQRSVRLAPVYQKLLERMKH
# Assay: affinity purification with mass spectrometry; T3691 GSCs under hypoxia lysed in IP lysis buffer; anti-TGFBI antibody or IgG with protein A/G agarose overnight at 4°C; SDS-PAGE, gel fragments, LC-MS/MS (Q Exactive HF-X)
substance,measurement,value
"EphA2, endogenous in GSCs (from UniProt P29317 24-976) (receptor)",binding,binds

# From PMC11426234
